Source: PubChem BioAssay
The inconclusive results got no clear call from the source; some entries with a clear call stand among them for comparison. Active and inactive are the calls of the source.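 Rule for the calls, unless noted: active = viability increase at or above a cutoff of the median across tested compounds plus 3 SD (cut at about 8.5% in these data, passing the limit was not always enough); inconclusive = some gains above the cutoff, reason not given; inactive = the rest.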

Legend:
[1] = S. cerevisiae growth inhibition in restrictive medium, OD615, pilot screen, restrictive growth control, yeast lifespan reduction project (AID 706;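 active = growth inhibition above a set limit, 3 SD over mean compound inhibition, in both replicates, cut at about 43% in these data; inconclusive = above the limit in only one replicate; inactive = at or below the limit in both replicates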;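 note: modified DeaD lifespan yeast strain shifted to restrictive glucose medium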); details: OD615, 48 h, at 10 µM, active compounds read high
Summary of the method: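 Material: engineered S. cerevisiae DeaD strain / Medium: glucose-based CSMM-D restrictive medium / Compound: single dose of 10 µM compound final, 0.25% DMSO / Timing: 4 h pre-incubation, 48 h exposure at 30 °C / Technique: OD615 absorbance reading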

[2] = viability of HCT116 without oncogenic beta-catenin – human colon tumor cells, pilot screen (AID 823;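 active = cell viability at or below a set limit in both duplicate runs, the limit being the all-compound median minus 4 SD, cut at about 23% in these data, passing the limit was not always enough; inconclusive = no clear call, values can overlap the other calls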;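 note: 0% = wells killed by 20 µM Hyamine and 100% = untreated DMSO cell wells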); details: HCT116 beta-catenin knockout viability, CellTiter-Glo, 60 h; at 10 µM; active compounds read low
[3] = viability of PTEN-null HCT116 cells – cell-based, HCT116 clonal line, CellTiter-Glo, pilot screen (AID 824;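 active = viability at or below 27.92% in each of two runs, the all-compound median minus 4 SD; inconclusive = no clear call, values can overlap the other calls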;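 note: 0% = 20 µM Hyamine control and 100% = vehicle cell control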); details: HCT116 PTEN-deleted viability, 60 h, at 10 µM, active compounds read low
[4] = doxorubicin toxicity protection in MRP-1 cells – H69AR cells, CellTiter-Glo, duplicate, MRP-1 activator project, pilot screen (AID 807); details: H69AR viability with doxorubicin, CellTiter-Glo luminescence; at 10 µM; active compounds read high;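 note: compound pretreatment 18-22 h then 72 h combined with doxorubicin; 0% = doxorubicin alone and 100% = vehicle without doxorubicin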
[5] = RAM pathway blockade in budding yeast – dse1pr::URA3 reporter, 5-FOA selection, pilot screen (AID 869;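 active = inhibition over a set limit, the all-compound mean plus 3 SD, in both replicate runs; inconclusive = over that limit in just one replicate run; inactive = at or under that limit in both runs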;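 note: 0% = DMSO wells with no growth and 100% = 10 µM 1-NA-PP1 with full growth; RAM network block rescues cells from 5-FOA so hits raise OD615 growth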); details: S. cerevisiae dse1pr::URA3 5-FOA growth, OD615, 2 d; at 10 µM; active compounds read high; strain carries analog-sensitive mutant Cbk1 kinase

With `Fc1ccc(-c2nnc3ccc(N4CCc5ccccc5C4)nn23)cc1` the growth inhibition [1] was inconclusive: 42.9%, the viability [2] was active: 2.21% and the viability [3] was active: 1.42%.

In the case of `Cc1ccc(C(C)C)c(OCc2nc(-c3nonc3N)no2)c1`, the viability increase [4] is reported as active: 8.48%.

For `COc1ccccc1CC(=O)Nc1ccc(-c2nnc(-c3ccco3)o2)cc1`, the growth inhibition [1] was inactive: 8.35%, the viability [2] was inconclusive: 83.8% and the inhibition [5] was inconclusive: 4.57%.

With `Cc1ccc(OCC(=O)Nc2cc(-c3nn4c(C)nnc4s3)ccc2C)cc1` the growth inhibition [1] was inconclusive: 31.4% and the viability [2] was inactive: 93.7%.

With `CCOC(=O)CNC(=O)CSc1nnc(-c2ccco2)n1Cc1ccco1` the growth inhibition [1] was inconclusive: 42% and the viability [3] was inactive: 98.2%.

In the case of `O=C(c1ccco1)N1CCN(C(=O)C2Cc3ccccc3CN2S(=O)(=O)c2ccc(F)cc2)CC1` (centres undefined), the growth inhibition [1] is reported as inactive: -9.61%, the viability [2] is reported as inactive: 97.2% and the viability [3] is reported as inconclusive: 98.2%.

In the case of `Cc1ccc(C(=O)CSc2n[nH]c(-c3ccco3)n2)cc1C`, the viability increase [4] is reported as inconclusive: 6.73%.

In the case of `COc1ccc(CCNC(=O)c2oc3ccc(S(=O)(=O)N4CCOCC4)cc3c2C)cc1OC`, the growth inhibition [1] is reported as inactive: -1.39% and the viability [2] is reported as inconclusive: 84%.

For `Cc1cc(/C=N/n2cnnc2)c(C)n1-c1ccc(OCc2ccccc2F)cc1`, the growth inhibition [1] was inconclusive: 38.7%, the viability [2] was active: 8.8% and the viability [3] was active: 13.7%.

For `Brc1ccc(CSc2ncn[nH]2)cc1`, the viability increase [4] was inconclusive: 6.65%.

With `O=C(Cn1c(=O)oc2cc(S(=O)(=O)N3CCCC3)ccc21)NCc1ccccn1` the viability increase [4] was inconclusive: 7.31%.

For `O/N=C1/CCc2cccc3cccc1c23`, the viability increase [4] was inactive: -3.93%.

For `COc1ccccc1CNC(=O)CN1CCN(Cc2ccc(Cl)cc2)C1=O`, the viability increase [4] was inconclusive: 9.13%.

With `COC(=O)c1cn(NC(=O)c2cccnc2)c(=O)c2ccccc12` the viability increase [4] was inconclusive: 4.92%.

With `Cc1noc(/C=C/N(C)C)c1S(=O)(=O)N1CCCC(C(=O)NC2CCCCC2)C1` (centres undefined) the viability increase [4] was inconclusive: 8.79% and the viability [2] was inactive: 93%.

With `O=C(O)c1cccc(N2C(=O)C3CC=C(Cl)CC3C2=O)c1` (centres undefined) the viability increase [4] was inconclusive: 8.44% and the viability [2] was inactive: 95.6%.

With `Cc1noc(/C=C/N(C)C)c1S(=O)(=O)N1CCCC(C(=O)N2CCCCC2)C1` (centres undefined) the viability increase [4] was inconclusive: 7.6%.

In the case of `Cc1cccc(N(C)c2cc(C)nc3nc(C)nn23)c1`, the viability increase [4] is reported as inconclusive: 5.85%.

For `Cc1noc(/C=C/N(C)C)c1S(=O)(=O)N1CCCC(C(=O)NC2CCCCC2C)C1` (centres undefined), the viability increase [4] was inconclusive: 5.18%.

With `CCc1ccc(C2CC(c3ccccc3C)n3nc(N)nc3N2)cc1` (centres undefined) the viability increase [4] was inconclusive: 4.33%.

With `Cc1ccc(N2C(=O)Nc3ccc(Br)cc3C2(O)C(=O)NCCCN(C)C)cc1C` (centres undefined) the viability increase [4] was inconclusive: 5.43%.

For `COc1cc(C(c2sc3ncnn3c2O)N2CCN(c3ccccc3F)CC2)cc(OC)c1OC` (centres undefined), the viability increase [4] was inconclusive: 5.52%.

For `Cc1noc(/C=C/N(C)C)c1S(=O)(=O)N1CCCC(C(=O)NCc2ccco2)C1` (centres undefined), the viability increase [4] was inconclusive: 5.81%.

With `CCOC(=O)/C=C1\SCC(=O)N1CCOc1cccc(Br)c1` the viability increase [4] was inconclusive: 6.85%.

For `CN(c1ccccc1)S(=O)(=O)c1ccc(C(=O)Nc2nccs2)cc1`, the viability increase [4] was inconclusive: 20.6%.

In the case of `CCOc1ccc2nc3ccc4[nH]onc4c3c2c1`, the viability increase [4] is reported as inconclusive: 5.5%.

For `CCOCCn1c(-c2ccc(OC)cc2)nc2ccccc21`, the viability increase [4] was inconclusive: 21.4%.

With `Cc1ccc(-n2c3c(cc(C(=O)O)c2=O)C(=O)CC(C)(C)C3)cc1` the viability increase [4] was inactive: -3.48% and the viability [2] was inconclusive: 103%.

For `O=C1C=C(O)CC(c2ccc(Cl)cc2)C1` (centres undefined), the viability increase [4] was inconclusive: 6.72%, the viability [2] was inconclusive: 109% and the viability [3] was inactive: 103%.

In the case of `Cc1onc(-c2ccccc2)c1C(=O)Nc1nnc(N(C)Cc2ccccc2)s1`, the viability increase [4] is reported as inconclusive: 6.9% and the viability [3] is reported as inactive: 88.8%.

In the case of `C=CCn1c(COc2ccc(CC)cc2)nnc1SC/C(O)=C(\C#N)c1nc2ccccc2[nH]1`, the viability increase [4] is reported as inconclusive: 4.84%.

With `N#Cc1nc(COc2cccc(Cl)c2)oc1N1CCCC1` the viability increase [4] was inconclusive: 6.66% and the viability [2] was inactive: 82.7%.

For `Cn1c(=O)[nH]c(=O)c2c1nc(SCC(=O)Nc1ccccc1)n2Cc1ccccc1`, the viability increase [4] was inconclusive: 8.08%.

In the case of `O=C(CCc1ccccc1)Nc1nnc(-c2ccc3c(c2)CCCC3)o1`, the viability increase [4] is reported as inconclusive: 12.4% and the viability [3] is reported as inactive: 72.1%.

For `Cc1noc(/C=C/N(C)C)c1S(=O)(=O)N1CCCC(C(=O)Nc2ccc3c(c2)OCO3)C1` (centres undefined), the viability increase [4] was inconclusive: 6.28%.
